This is an account of results in the supplement of paper PMC9135407.

The test concerns primary human hepatic stellate cells (donor 1). Briefly: percent Bodipy-positive cells; higher = more lipid droplet accumulation. To be noted: 48 h.
The mark [1] stands for this setting: library stock concentration: 80 uM.
[2] abbreviates: library stock concentration: 2 mM.
Setting [3] is: library stock concentration: 3.33 mM.
The mark [4] stands for this setting: library stock concentration: 10 mM.
Where [5] appears, read: library stock concentration: 1 mM.
The mark [6] stands for this setting: library stock concentration: 400 uM.

Several values for one entry are separate records, joined by “and”; a condition that tells them apart may be missing. Identical values can stand only once. Counter-ions that a name gives are not always drawn. ± gives the standard deviation of the averaged measurements. The list shows a part of the results. Baselines shift from plate to plate; read single values as rough.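 Culture-activated primary human stellate myofibroblasts, where regained lipid droplets signal inactivation. Value: share of Hoechst-counted cells above a per-plate Bodipy cutoff, in duplicate wells, with DMSO negative and nortriptyline positive controls on each plate. Hits: a control-normalized score above the plate's top-tenth-percentile nortriptyline wells, or one of a plate's three best wells. Final well concentrations are not given.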

With `CC(C)(C)c1cnc(CSc2cnc(NC(=O)C3CCNCC3)s2)o1`, the “percent Bodipy-positive cells” value is, setting by setting: under setting [1], 50.2 ± 7.9%; under setting [2], 47.6% and 69.9%; under setting [3], 62.7 ± 2.1%.

On to `CCCCCCCCCCCCCCCC(=O)OC/C=C(C)/C=C/C=C(C)/C=C/C1=C(C)CCCC1(C)C` [Retinyl palmitate], for which, under setting [4], the “percent Bodipy-positive cells” value was 44.4 ± 2%.

Turning to `COc1cc(Br)c(Nc2nc(-c3c(C)nc4ncccn34)cs2)c(Br)c1`, the “percent Bodipy-positive cells” value by setting is: under setting [3], 62% and 54.6%; under setting [4], 89.1% and 64.3%. Consider `O=C(O)CCCCCCCC(=O)O` [Azelaic acid], for which the “percent Bodipy-positive cells” value was 51.7% and 39.6% under setting [4]; 21.7 ± 14% (library stock concentration: 10.6 mM).

As to `CC(=O)OCC(=O)[C@@]1(O)CC[C@H]2[C@@H]3CCC4=CC(=O)CC[C@]4(C)[C@@]3(F)[C@@H](O)C[C@@]21C` [Fludrocortisone acetate], the “percent Bodipy-positive cells” value worked out at 25.2 ± 2.2%. Moreover, where the note is “library stock concentration: 4.7 mM”, the “percent Bodipy-positive cells” value is 2.56 ± 1.4%. For the same molecule, the “percent Bodipy-positive cells” value under setting [4] came to 7.76 ± 1.9%. With `CCCn1ncc(-c2ccnc(NC3CC(C)(C)NC(C)(C)C3)n2)c1C`, the “percent Bodipy-positive cells” value under setting [4] was 81.3 ± 0.28%.

For `COc1ccc2c3c([nH]c2c1)[C@H]1C[C@H]2[C@H](C[C@@H](O)[C@H](OC)[C@H]2C(=O)O)CN1CC3` [Reserpinic acid hydrochloride], the “percent Bodipy-positive cells” value amounted to 6.81 ± 1.1%. Turning to `CC(=Cc1ccc(C(=O)O)cc1)c1ccc2c(c1)C(C)(C)CCC2(C)C`, the “percent Bodipy-positive cells” value runs as follows: under setting [5], 11.1 ± 6.5%; under setting [4], 22.4% and 9.27%. Regarding `CC(=Cc1ccc(C(=O)O)cc1)c1ccc2c(c1)C(C)(C)CCC2(C)C` [TTNPB (Arotinoid Acid)], the “percent Bodipy-positive cells” value under setting [3] turned out to be 8.31 ± 0.35% and the “percent Bodipy-positive cells” value under setting [4] came to 23.6 ± 3.5%. For `COC(=O)C1=C(C)NC(C)=C(C(=O)OCCCN2CCC(c3ccccc3)(c3ccccc3)CC2)[C@@H]1c1cccc([N+](=O)[O-])c1` [(R)-(-)-Niguldipine hydrochloride], the “percent Bodipy-positive cells” value under setting [4] worked out at 65 ± 21%.

In the case of `CC(=O)OCC(=O)[C@@]1(O)CC[C@H]2[C@@H]3CCC4=CC(=O)C=C[C@]4(C)[C@@]3(Cl)[C@@H](Cl)C[C@@]21C`, under setting [4], the “percent Bodipy-positive cells” value is 26.3 ± 14%.

On to `CC[N+](C)(CC)CCOC(=O)C1c2ccccc2Oc2ccccc21` [Methantheline bromide], for which the “percent Bodipy-positive cells” value is 8.14 ± 0.48%. `O=C(O)CN1C(=O)c2cccc3cccc(c23)C1=O` [Alrestatin]: the “percent Bodipy-positive cells” value (library stock concentration: 7.8 mM) is 17.4 ± 0.29% and the “percent Bodipy-positive cells” value under setting [4] was 6.46 ± 1.7%. On to `CCCCN(CCCC)CCCOC(=O)c1ccc(N)cc1` [Butacaine], for which the “percent Bodipy-positive cells” value was found to be 10.06 ± 0.079%. Besides, under setting [4], the “percent Bodipy-positive cells” value is 50.2 ± 0.53%. For the molecule `COC(=O)Nc1nc2cc(C(=O)c3cccs3)ccc2[nH]1` [Nocodazole], the “percent Bodipy-positive cells” value was 29.4 ± 10% under setting [3] and 19.7 ± 5% (library stock concentration: 6.6 mM). Turning to `Cc1ccc(C(=O)c2ccc(CC(=O)O)n2C)cc1` [Tolmetin sodium salt dihydrate], the “percent Bodipy-positive cells” value turned out to be 8.48 ± 0.17%. Consider `Cc1ccc(C(=O)c2ccc(CC(=O)O)n2C)cc1` [Tolmetin sodium], for which the “percent Bodipy-positive cells” value was found to be 9.32 ± 3.4% (library stock concentration: 7.2 mM) and 44 ± 26% under setting [4]. Regarding `NNCCc1ccccc1`, the “percent Bodipy-positive cells” value under setting [4] was 9.21 ± 0.62%. With `NNCCc1ccccc1` [Phenelzine sulfate], the “percent Bodipy-positive cells” value amounted to 33.6 ± 4.6%. For the same molecule, the “percent Bodipy-positive cells” value under setting [4] is 17.3% and 10.6%. Consider `NNCCc1ccccc1` [Phenelzine], for which the “percent Bodipy-positive cells” value under setting [4] was determined as 36.5 ± 5.2%. On the same count and under the same terms, to `Cc1nccnc1N1CCCCC1` belongs 34 ± 6.8%. With `C=C1CC[C@H](O)C/C1=C/C=C1\CCC[C@]2(C)[C@@H]([C@H](C)CCCC(C)C)CC[C@@H]12` [Cholecalciferol], the “percent Bodipy-positive cells” value is 20.9 ± 7.1%. For the same molecule, the “percent Bodipy-positive cells” value (library stock concentration: 5.2 mM) amounted to 5.31 ± 1.9%. Consider `NC1(C(=O)O)CCCCC1` [1-Amino-1-cyclohexanecarboxylic acid hydrochloride], for which, under setting [4], the “percent Bodipy-positive cells” value was 33.8 ± 5.7%. For `COc1cc2c(Nc3ccc(NC(=O)c4ccccc4)cc3)ncnc2cc1OCCCN1CCOCC1`, the “percent Bodipy-positive cells” value runs as follows: under setting [1], 18.8 ± 5.1%; under setting [6], 19.6 ± 11%; under setting [2], 35.8 ± 2.2%. As for `CC(=O)Nc1ccc(C(=O)Nc2ccccc2N)cc1` [CI994 (Tacedinaline)], the “percent Bodipy-positive cells” value is, setting by setting: under setting [3], 11.1 ± 0.66%; under setting [4], 57.1 ± 12%. As to `CC(Cc1cccc(C(F)(F)F)c1)NCCOC(=O)c1ccccc1` (stereo not given) [Benfluorex hydrochloride], the “percent Bodipy-positive cells” value is 59.1 ± 1.1%. Besides, the “percent Bodipy-positive cells” value under setting [4] was 21.2 ± 4.2%. On to `COc1cc2c(NC3CCN(C(C)C)CC3)nc(C3CCCCC3)nc2cc1OCCCN1CCCC1`, for which the “percent Bodipy-positive cells” value by setting is: under setting [1], 57.6 ± 7.7%; under setting [6], 62.1 ± 12%; under setting [2], 100%; under setting [4], 100%.

For `O=C(O)[C@]1(Cc2cccc(Nc3nccs3)n2)CC[C@@H](Oc2cccc(Cl)c2F)CC1`, the “percent Bodipy-positive cells” value by setting is: under setting [3], 11 ± 5.8%; under setting [4], 29.9 ± 6%.

Turning to `CCCCC/C=C\C/C=C\C/C=C\C/C=C\CCCCCC(=O)O` [Adrenic Acid], the “percent Bodipy-positive cells” value under setting [5] came out at 9.29 ± 2.3%.

With `C#Cc1cccc(Nc2ncnc3cc(OC)c(OCCCCCCC(=O)NO)cc23)c1`, the “percent Bodipy-positive cells” value turned out to be 54.6 ± 6.2% under setting [3] and 57.6 ± 3.3% under setting [4]. `CC(=O)S[C@@H]1CC2=CC(=O)CC[C@]2(C)[C@H]2CC[C@@]3(C)[C@@H](CC[C@@]34CCC(=O)O4)[C@H]12` [Spironolactone]: the “percent Bodipy-positive cells” value came out at 21.7 ± 2.1%. For the same molecule, under setting [3], the “percent Bodipy-positive cells” value stood at 13 ± 4.9%. Further, the “percent Bodipy-positive cells” value (library stock concentration: 4.8 mM) is 8.37% and 11.8%.

In the case of `CCCCCCCCCCCCCCCCCC=CC(=O)O` [.DELTA.2-cis Eicosenoic Acid], the “percent Bodipy-positive cells” value under setting [5] was determined as 6.23 ± 2.1%. For the molecule `CCCc1cc(C(N)=S)ccn1` [Protionamide], the “percent Bodipy-positive cells” value under setting [3] is 20.2 ± 6.6% and the “percent Bodipy-positive cells” value under setting [4] amounted to 11 ± 3.3%.

In the case of `CCCc1cc(C(N)=S)ccn1` [Prothionamide], under setting [4], the “percent Bodipy-positive cells” value worked out at 48.5 ± 17%.
